Measured values as given in PMC10984984, “Loss-of-function mutation in PRMT9 causes abnormal synapse development by dysregulation of RNA alternative splicing”.

Protein sequences, listed by entry. Tags and fused reporters are not part of them. Lines headed by an entry give the natural chain unless they say otherwise; changes in a name come on top.
UniProt Q6P2P2: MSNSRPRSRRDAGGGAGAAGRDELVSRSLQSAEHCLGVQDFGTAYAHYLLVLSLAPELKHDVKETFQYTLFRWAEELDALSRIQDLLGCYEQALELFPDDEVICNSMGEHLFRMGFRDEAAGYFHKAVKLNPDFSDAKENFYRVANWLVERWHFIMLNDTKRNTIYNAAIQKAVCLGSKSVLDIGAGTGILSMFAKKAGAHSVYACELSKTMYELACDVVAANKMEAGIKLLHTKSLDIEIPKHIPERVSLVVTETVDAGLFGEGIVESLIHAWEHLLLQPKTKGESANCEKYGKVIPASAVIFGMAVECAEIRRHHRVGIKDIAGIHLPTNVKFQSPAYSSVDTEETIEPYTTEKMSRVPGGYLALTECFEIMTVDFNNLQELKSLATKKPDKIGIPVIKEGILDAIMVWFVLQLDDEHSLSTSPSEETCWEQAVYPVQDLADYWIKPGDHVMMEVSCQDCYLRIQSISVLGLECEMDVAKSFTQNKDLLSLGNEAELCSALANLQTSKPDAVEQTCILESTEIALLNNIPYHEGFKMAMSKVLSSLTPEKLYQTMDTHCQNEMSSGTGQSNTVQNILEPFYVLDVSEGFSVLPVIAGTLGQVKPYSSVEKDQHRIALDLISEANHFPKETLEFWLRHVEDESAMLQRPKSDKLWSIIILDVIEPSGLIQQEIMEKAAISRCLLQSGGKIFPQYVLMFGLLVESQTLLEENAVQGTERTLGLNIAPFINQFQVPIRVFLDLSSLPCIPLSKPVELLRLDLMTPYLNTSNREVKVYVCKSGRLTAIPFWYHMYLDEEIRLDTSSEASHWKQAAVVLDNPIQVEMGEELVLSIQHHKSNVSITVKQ
UniProt Q15386: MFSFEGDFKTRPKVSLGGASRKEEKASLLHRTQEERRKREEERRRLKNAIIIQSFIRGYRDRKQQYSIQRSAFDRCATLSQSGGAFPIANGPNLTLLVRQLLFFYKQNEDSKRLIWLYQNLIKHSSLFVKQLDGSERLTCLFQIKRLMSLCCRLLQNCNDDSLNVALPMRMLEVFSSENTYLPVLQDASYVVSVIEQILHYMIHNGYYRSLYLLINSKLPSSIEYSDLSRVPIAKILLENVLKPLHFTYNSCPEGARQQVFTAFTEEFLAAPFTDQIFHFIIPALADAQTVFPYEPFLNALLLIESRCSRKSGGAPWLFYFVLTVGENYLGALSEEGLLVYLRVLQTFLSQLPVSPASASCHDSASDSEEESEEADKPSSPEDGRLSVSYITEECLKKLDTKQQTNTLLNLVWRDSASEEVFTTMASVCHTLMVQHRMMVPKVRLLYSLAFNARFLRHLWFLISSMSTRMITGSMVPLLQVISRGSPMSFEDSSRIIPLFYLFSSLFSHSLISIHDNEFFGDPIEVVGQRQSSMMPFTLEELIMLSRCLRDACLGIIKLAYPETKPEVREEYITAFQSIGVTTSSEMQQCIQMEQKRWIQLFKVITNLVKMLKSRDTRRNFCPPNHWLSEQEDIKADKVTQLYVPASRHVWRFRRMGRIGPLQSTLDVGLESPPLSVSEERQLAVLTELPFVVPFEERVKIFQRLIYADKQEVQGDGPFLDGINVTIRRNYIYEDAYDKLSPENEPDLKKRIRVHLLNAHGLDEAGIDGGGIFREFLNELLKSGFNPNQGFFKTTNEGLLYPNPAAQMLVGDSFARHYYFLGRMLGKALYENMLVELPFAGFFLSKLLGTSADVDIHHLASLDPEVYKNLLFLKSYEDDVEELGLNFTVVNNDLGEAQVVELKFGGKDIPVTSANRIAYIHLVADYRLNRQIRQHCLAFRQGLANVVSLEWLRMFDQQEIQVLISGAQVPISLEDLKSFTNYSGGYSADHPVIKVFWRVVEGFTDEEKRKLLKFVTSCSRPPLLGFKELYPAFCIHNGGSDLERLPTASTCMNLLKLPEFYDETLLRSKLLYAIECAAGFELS
UniProt Q13435: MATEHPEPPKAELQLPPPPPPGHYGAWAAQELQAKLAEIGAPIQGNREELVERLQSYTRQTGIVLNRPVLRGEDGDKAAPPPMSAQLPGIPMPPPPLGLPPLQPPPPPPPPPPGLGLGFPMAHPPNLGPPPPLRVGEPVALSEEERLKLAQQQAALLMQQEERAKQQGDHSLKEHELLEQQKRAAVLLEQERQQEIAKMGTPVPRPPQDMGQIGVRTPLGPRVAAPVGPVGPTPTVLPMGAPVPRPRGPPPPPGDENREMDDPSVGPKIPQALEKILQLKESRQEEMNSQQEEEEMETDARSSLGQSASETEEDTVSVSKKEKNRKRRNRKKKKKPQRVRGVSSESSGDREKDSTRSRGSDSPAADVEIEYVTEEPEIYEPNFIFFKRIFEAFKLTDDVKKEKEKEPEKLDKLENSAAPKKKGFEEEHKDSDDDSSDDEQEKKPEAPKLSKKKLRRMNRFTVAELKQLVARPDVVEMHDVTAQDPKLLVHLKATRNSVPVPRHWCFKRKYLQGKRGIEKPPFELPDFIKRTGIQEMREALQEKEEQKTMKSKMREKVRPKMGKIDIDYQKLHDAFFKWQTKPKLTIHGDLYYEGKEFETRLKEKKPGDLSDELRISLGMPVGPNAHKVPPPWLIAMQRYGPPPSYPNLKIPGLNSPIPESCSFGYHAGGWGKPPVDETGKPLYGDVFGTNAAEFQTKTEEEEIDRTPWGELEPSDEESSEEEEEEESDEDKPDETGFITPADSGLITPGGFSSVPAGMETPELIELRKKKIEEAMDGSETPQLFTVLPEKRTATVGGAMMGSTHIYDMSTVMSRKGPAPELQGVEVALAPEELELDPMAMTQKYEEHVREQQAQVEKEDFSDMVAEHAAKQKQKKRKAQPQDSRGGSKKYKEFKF

What was measured:
Experiment in all cases: co-IP; Flag-tagged WT or mutant PRMT9 immunoprecipitated from lysates of transfected cells (anti-Flag M2 magnetic beads in Fig. 2e), partners detected by western blot; co-IP buffer 50 mM Tris-HCl pH 7.5, 150 mM NaCl, 5 mM EDTA, 15 mM MgCl2, 0.1% NP-40
[1] = biological target: Flag-tagged G189R-mutant PRMT9 (human) (UniProt Q6P2P2)
[2] = biological target: Flag-tagged wild type PRMT9 (protein arginine methyltransferase 9) (human) (UniProt Q6P2P2)
[3] = biological target: Flag-tagged catalytic-inactive PRMT9 4A mutant (VLDI mutated to AAAA) (human) (UniProt Q6P2P2)

binding [1] | binding [2] | binding [3] | Substance
binds | binds |  | valosin-containing protein (VCP)/p97 (from UniProt P55072 1-806)
binds | binds |  | ubiquitin-protein ligase E3C (UBE3C) (from UniProt Q15386 1-1083) (enzyme)
no binding | binds | no binding | splicing factor 3B subunit 2 (SF3B2), endogenous (from UniProt Q13435 1-895)

Results are given in words; binding and its absence hold for the method and conditions named. Binding seen in cells or lysates may run through a third protein. For some of these results: Binding can be weak; no strength is given.
